{
  "source": "PubChem BioAssay AID248",
  "about": "(DTP/NCI, 2004)",
  "system": "L1210 leukemia ip in BDF1 mice, survival T/C",
  "assay": "NCI In Vivo Anticancer Drug Screen. Data for tumor model L1210 Leukemia (intraperitoneal) in B6D2F1 (BDF1) mice",
  "settings": "T/C endpoint: mean survival time, higher T/C = longer survival",
  "key": {"[1]": {"settings": "dose: 400.0 mg/kg/injection, schedule: Q04DX003 (ip), vehicle: saline"}, "[2]": {"settings": "dose: 200.0 mg/kg/injection, schedule: Q01DX001 (ip), vehicle: saline"}, "[3]": {"settings": "dose: 400.0 mg/kg/injection, schedule: Q01DX001 (ip), vehicle: saline"}},
  "note": "The list does not hold the whole screen: it is rich in T/C values a quarter to a half above the control, in often repeated tests (any T/C) and in doses without a T/C. Other doses and runs of a compound stand elsewhere. T/C gives the treated animals as a percentage of the vehicle group. Some entries give survivors of the animals treated and no T/C: the source holds a T/C of zero for them, seemingly a mark for toxic or unscored doses. Some survivor counts are full or nearly so, which does not show that the dose was tolerated: the source hardly ever lists a survival T/C far under the control, and the zero likely stands for such cases as well. Survivors were counted at the toxicity check, usually on the fifth day, unless a day is given; later deaths do not show. Schedules are NCI's codes, read here as Q, the interval in days (D) or hours (H), X, the number of doses. Some entries were tested several times; their values stand side by side, smallest first. For survival time, this PubChem deposit counts one and a half times the control or more as active, and values a quarter to a half above the control carry no call in these data; other NCI protocols may use other cut-offs. Some T/C values are followed by the survivors on the day toxicity was checked, most often the fifth; without a count, all were alive then.",
  "data": [
    {"smiles": "CNC(=O)c1ccc[n+](CC(=O)Nc2ccccc2)c1", "values": [
      {"measurement": "survivor count", "setting": "[1]", "value": "0 of 6"}
    ]},
    {"smiles": "COc1ccc(C(=O)N/N=C/c2cccc(OC)c2OC)cc1", "values": [
      {"measurement": "T/C", "setting": "dose: 400.0 mg/kg/injection, schedule: Q04DX002 (ip), vehicle: Klucel (hydroxypropylcellulose) (HPC)", "value": "129 and 130 % of control"},
      {"measurement": "survivor count", "setting": "dose: 800.0 mg/kg/injection, schedule: Q04DX002 (ip), vehicle: Klucel (hydroxypropylcellulose) (HPC)", "value": "2 of 6"}
    ]},
    {"smiles": "c1ccc(C2C(c3ccccc3)N2C23CC4CC(CC(C4)C2)C3)cc1", "note": "(stereo not drawn)", "values": [
      {"measurement": "survivor count", "setting": "dose: 400.0 mg/kg/injection, schedule: Q04DX003 (ip), vehicle: Klucel (hydroxypropylcellulose) (HPC)", "value": "6 of 6"}
    ]},
    {"smiles": "O=C(NCCCl)NC1CS(=O)(=O)CS(=O)(=O)C1", "values": [
      {"measurement": "survivor count", "setting": "dose: 150.0 mg/kg/injection, schedule: Q01DX001 (ip), vehicle: other", "value": "2 of 6"},
      {"measurement": "survivor count", "setting": "dose: 300.0 mg/kg/injection, schedule: Q01DX001 (ip), vehicle: other", "value": "0 of 6"}
    ]},
    {"smiles": "NC(=O)c1ccccc1OC(=O)Nc1ccc(F)cc1", "values": [
      {"measurement": "survivor count", "setting": "dose: 200.0 mg/kg/injection, schedule: Q01DX009 (ip), vehicle: carboxymethylcellulose (CMC)", "value": "1 of 3 and 3 of 6"},
      {"measurement": "survivor count", "setting": "dose: 200.0 mg/kg/injection, schedule: Q04DX002 (ip), vehicle: carboxymethylcellulose (CMC)", "value": "3 of 3"},
      {"measurement": "survivor count", "setting": "dose: 400.0 mg/kg/injection, schedule: Q04DX002 (ip), vehicle: carboxymethylcellulose (CMC)", "value": "3 of 3"}
    ]},
    {"smiles": "Cc1cc(NC(=O)N(CCCl)N=O)c(C)cc1NC(=O)c1ccccc1", "values": [
      {"measurement": "T/C", "setting": "dose: 6.3 mg/kg/injection, schedule: Q01DX009 (ip), vehicle: carboxymethylcellulose (CMC)", "value": "134 % of control"},
      {"measurement": "T/C", "setting": "dose: 7.5 mg/kg/injection, schedule: Q01DX009 (ip), vehicle: carboxymethylcellulose (CMC)", "value": "129 % of control"},
      {"measurement": "T/C", "setting": "dose: 9.6 mg/kg/injection, schedule: Q01DX009 (ip), vehicle: other", "value": "142 % of control"},
      {"measurement": "T/C", "setting": "dose: 14.0 mg/kg/injection, schedule: Q01DX001 (ip), vehicle: carboxymethylcellulose (CMC)", "value": "128 % of control"},
      {"measurement": "T/C", "setting": "dose: 15.0 mg/kg/injection, schedule: Q01DX009 (ip), vehicle: carboxymethylcellulose (CMC)", "value": "142 % of control"},
      {"measurement": "T/C", "setting": "dose: 30.0 mg/kg/injection, schedule: Q01DX009 (ip), vehicle: carboxymethylcellulose (CMC)", "value": "149 % of control [5 of 6 alive]"},
      {"measurement": "T/C", "setting": "dose: 50.0 mg/kg/injection, schedule: Q01DX001 (ip), vehicle: carboxymethylcellulose (CMC)", "value": "147 % of control"},
      {"measurement": "T/C", "setting": "dose: 53.0 mg/kg/injection, schedule: Q01DX001 (ip), vehicle: carboxymethylcellulose (CMC)", "value": "137 % of control"},
      {"measurement": "T/C", "setting": "dose: 80.0 mg/kg/injection, schedule: Q01DX001 (ip), vehicle: carboxymethylcellulose (CMC)", "value": "142 % of control"},
      {"measurement": "T/C", "setting": "dose: 115.0 mg/kg/injection, schedule: Q01DX001 (ip), vehicle: carboxymethylcellulose (CMC)", "value": "140 % of control"},
      {"measurement": "T/C", "setting": "dose: 115.0 mg/kg/injection, schedule: Q01DX009 (ip), vehicle: carboxymethylcellulose (CMC)", "value": "142 % of control [5 of 6 alive]"},
      {"measurement": "T/C", "setting": "dose: 177.0 mg/kg/injection, schedule: Q01DX001 (ip), vehicle: carboxymethylcellulose (CMC)", "value": "140 % of control"},
      {"measurement": "T/C", "setting": "dose: 177.0 mg/kg/injection, schedule: Q01DX001 (ip), vehicle: other", "value": "147 % of control"},
      {"measurement": "T/C", "setting": "dose: 177.0 mg/kg/injection, schedule: Q01DX009 (ip), vehicle: carboxymethylcellulose (CMC)", "value": "144 % of control"},
      {"measurement": "T/C", "setting": "dose: 266.0 mg/kg/injection, schedule: Q01DX001 (ip), vehicle: carboxymethylcellulose (CMC)", "value": "148 % of control"},
      {"measurement": "survivor count", "setting": "dose: 266.0 mg/kg/injection, schedule: Q01DX009 (ip), vehicle: carboxymethylcellulose (CMC)", "value": "6 of 6"},
      {"measurement": "survivor count", "setting": "dose: 400.0 mg/kg/injection, schedule: Q01DX001 (ip), vehicle: other", "value": "2 of 6"}
    ]},
    {"smiles": "CC(C)=CCC/C(C)=C/COC(=O)C(CC=C(C)C)CCN1CCN(CC=C(C)C)CC1", "note": "(stereo not drawn)", "values": [
      {"measurement": "survivor count", "setting": "dose: 400.0 mg/kg/injection, schedule: Q01DX009 (ip), vehicle: saline with Tween-80", "value": "6 of 6"}
    ]},
    {"smiles": "O=C1NC(=O)C2C3CCC(C3)C12", "note": "(stereo not drawn)", "values": [
      {"measurement": "survivor count", "setting": "dose: 100.0 mg/kg/injection, schedule: Q04DX003 (ip), vehicle: saline", "value": "0 of 4"},
      {"measurement": "survivor count", "setting": "dose: 200.0 mg/kg/injection, schedule: Q04DX003 (ip), vehicle: saline", "value": "0 of 4"},
      {"measurement": "survivor count", "setting": "[1]", "value": "0 of 4"}
    ]},
    {"smiles": "CS(=O)(=O)N1C(=O)c2ccccc2C1=O", "values": [
      {"measurement": "survivor count", "setting": "dose: 100.0 mg/kg/injection, schedule: Q04DX002 (ip), vehicle: saline with Tween-80", "value": "1 of 3"},
      {"measurement": "survivor count", "setting": "dose: 200.0 mg/kg/injection, schedule: Q04DX002 (ip), vehicle: saline with Tween-80", "value": "1 of 3"},
      {"measurement": "survivor count", "setting": "dose: 400.0 mg/kg/injection, schedule: Q04DX002 (ip), vehicle: saline with Tween-80", "value": "0 of 3"}
    ]},
    {"smiles": "CCOC(=O)/C=C(\\Nc1ccc(C(c2ccccc2)(c2ccccc2)c2ccccc2)cc1)C(=O)OCC", "values": [
      {"measurement": "survivor count", "setting": "dose: 100.0 mg/kg/injection, schedule: Q01DX001 (ip), vehicle: saline", "value": "6 of 6"},
      {"measurement": "survivor count", "setting": "[2]", "value": "5 of 6"},
      {"measurement": "survivor count", "setting": "[3]", "value": "6 of 6"}
    ]},
    {"smiles": "O=[N+]([O-])c1ccccc1N=Nc1c(O)[nH]c2c(Cl)cc(Cl)cc12", "values": [
      {"measurement": "survivor count", "setting": "[2]", "value": "3 of 6"},
      {"measurement": "survivor count", "setting": "[3]", "value": "1 of 6"}
    ]}
  ]
}
